Experimental data published in paper PMC11126936, “Reactivating Hippo by drug compounds to suppress gastric cancer and enhance chemotherapy sensitivity” (The Journal of Biological Chemistry, 2024).
Results are given in words; binding and its absence hold for the method and conditions named. For some assays here: Binding can be weak; no strength is given.

How the values were obtained:
[1] = target: purified MST2 recombinant protein; assay: AlphaScreen or HTRF; purified STRN3 and MST2 recombinant proteins against the same compound library, two rounds; which protein was on which bead is not told; both purified
[2] = target: purified MST2 recombinant protein; assay: MST; Monolith NT.115, 25 °C, fluorescent-labeled protein; STRN3 and MST2 in the presence of CX; both purified

binding [1]: binds
binding [2]: no binding (only in the presence of CX)
B1: STRN3 (64–145) (domain or fragment, UniProt Q13033 64-145, looked up)
chain: TIPGILHYIQHEWARFEMERAHWEVERAELQARIAFLQGERKGQENLKKDLVRRIKMLEYALKQERAKYHKLKYGTELNQGD
notes: STRN3 (striatin-3), amino acid 64-145
